Some of these results come from one statement about several compounds together. For at least one compound, name, drawing or mass did not settle the structure.
Tested on: collagenase
Assay type: cell-based
Conditions: pre-incubation of chondrocytes 6 hours, then IL-1 20 ng/ml 18 hours

Row | Compound | concentration that prevented IL-1-induced collagenase expression (as low as)
1 | N#CC1=C(N)Oc2c(ccc3ccccc23)C1c1cccc([N+](=O)[O-])c1 (stereo not shown) [LY290181] | ≥ 100 nM
2 | Nc1ncnc2c1ccn2[C@@H]1O[C@H](CO)[C@@H](O)[C@H]1O [tubercidin] | ≥ 100 nM
3 | epothilone | ≥ 100 nM
4 | hexylene glycol | ≥ 100 nM

— patent US20070299043A1, “Anti-scarring drug combinations and use thereof” (priority 2005, published 2007)
